doi:10.1101/2025.03.10.641595
No constants are given. Whether binding was seen depends on the method and setting. Binding seen in cells or lysates may run through a third protein. A yes stands for co-enrichment or nearness to the bait. Other partners may have been found. A no says only that the protein was not detected with the bait.

Chains of the proteins cited; added tags and fusions are not shown.
UniProt Q9UGL1: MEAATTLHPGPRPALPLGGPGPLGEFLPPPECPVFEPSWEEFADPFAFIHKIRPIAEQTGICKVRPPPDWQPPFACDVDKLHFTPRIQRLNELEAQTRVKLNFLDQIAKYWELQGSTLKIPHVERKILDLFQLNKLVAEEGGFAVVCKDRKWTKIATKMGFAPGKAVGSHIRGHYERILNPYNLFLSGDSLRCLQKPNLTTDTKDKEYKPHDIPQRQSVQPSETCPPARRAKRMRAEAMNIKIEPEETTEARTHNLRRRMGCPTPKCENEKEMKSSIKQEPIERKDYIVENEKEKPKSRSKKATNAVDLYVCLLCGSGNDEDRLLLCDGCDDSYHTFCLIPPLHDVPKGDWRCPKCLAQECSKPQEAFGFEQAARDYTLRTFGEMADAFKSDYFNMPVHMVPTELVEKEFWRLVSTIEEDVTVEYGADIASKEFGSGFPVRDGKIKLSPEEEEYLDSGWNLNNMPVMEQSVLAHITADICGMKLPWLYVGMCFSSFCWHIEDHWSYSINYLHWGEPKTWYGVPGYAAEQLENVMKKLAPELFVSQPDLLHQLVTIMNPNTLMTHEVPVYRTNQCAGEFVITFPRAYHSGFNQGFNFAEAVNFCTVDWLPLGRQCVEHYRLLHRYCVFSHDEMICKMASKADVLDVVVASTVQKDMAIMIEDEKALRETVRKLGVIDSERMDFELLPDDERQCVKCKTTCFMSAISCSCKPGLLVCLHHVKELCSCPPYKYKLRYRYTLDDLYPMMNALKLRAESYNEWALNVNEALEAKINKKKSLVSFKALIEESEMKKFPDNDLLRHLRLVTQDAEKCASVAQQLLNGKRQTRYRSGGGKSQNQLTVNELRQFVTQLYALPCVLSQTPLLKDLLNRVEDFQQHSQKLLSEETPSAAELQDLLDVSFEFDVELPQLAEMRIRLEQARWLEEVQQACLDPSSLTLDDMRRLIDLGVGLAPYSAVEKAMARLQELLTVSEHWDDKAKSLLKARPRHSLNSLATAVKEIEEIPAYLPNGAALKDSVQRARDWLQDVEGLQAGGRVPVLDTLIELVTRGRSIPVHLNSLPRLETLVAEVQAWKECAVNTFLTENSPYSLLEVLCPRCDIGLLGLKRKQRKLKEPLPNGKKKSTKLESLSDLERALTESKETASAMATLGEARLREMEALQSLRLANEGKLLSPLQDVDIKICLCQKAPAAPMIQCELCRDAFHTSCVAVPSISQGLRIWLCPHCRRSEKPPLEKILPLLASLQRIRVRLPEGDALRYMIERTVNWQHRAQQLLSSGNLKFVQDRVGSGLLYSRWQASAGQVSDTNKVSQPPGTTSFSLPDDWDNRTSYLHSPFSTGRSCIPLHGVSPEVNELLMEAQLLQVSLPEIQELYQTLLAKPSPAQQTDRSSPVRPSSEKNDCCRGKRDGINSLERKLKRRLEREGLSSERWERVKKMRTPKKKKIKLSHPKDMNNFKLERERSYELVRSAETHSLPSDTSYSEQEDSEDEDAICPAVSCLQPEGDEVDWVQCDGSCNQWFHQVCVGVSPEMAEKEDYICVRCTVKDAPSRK
UniProt Q12778: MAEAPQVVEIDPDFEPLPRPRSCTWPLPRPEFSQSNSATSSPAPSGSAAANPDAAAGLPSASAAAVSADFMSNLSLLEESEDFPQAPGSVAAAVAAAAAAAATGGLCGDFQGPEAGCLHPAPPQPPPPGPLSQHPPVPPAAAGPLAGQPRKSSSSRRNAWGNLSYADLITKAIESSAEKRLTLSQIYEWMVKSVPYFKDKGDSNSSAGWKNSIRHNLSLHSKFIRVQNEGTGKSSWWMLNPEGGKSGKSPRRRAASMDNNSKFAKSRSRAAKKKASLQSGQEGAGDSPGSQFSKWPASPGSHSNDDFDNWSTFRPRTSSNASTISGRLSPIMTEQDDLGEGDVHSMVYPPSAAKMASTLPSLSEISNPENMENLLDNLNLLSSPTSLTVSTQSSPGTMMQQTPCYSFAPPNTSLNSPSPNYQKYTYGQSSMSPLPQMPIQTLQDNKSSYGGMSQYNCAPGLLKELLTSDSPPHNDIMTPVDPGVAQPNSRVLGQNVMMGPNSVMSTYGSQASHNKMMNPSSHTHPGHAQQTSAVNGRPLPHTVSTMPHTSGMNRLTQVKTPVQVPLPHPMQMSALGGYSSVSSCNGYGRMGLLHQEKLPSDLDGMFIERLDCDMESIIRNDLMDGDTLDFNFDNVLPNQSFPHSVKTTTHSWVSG
UniProt P98177: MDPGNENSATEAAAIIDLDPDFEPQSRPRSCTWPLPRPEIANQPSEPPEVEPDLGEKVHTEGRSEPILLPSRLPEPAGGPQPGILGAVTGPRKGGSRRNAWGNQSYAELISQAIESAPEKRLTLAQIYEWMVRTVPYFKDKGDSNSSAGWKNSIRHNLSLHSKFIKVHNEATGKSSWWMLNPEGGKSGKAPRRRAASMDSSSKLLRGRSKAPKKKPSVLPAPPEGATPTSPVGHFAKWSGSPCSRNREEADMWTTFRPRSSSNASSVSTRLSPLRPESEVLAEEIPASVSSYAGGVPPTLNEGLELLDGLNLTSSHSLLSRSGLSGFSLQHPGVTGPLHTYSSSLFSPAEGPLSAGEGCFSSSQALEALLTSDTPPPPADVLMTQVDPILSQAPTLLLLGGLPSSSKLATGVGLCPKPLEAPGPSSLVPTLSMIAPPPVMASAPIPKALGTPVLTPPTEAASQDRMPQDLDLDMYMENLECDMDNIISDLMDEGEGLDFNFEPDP
UniProt O43524: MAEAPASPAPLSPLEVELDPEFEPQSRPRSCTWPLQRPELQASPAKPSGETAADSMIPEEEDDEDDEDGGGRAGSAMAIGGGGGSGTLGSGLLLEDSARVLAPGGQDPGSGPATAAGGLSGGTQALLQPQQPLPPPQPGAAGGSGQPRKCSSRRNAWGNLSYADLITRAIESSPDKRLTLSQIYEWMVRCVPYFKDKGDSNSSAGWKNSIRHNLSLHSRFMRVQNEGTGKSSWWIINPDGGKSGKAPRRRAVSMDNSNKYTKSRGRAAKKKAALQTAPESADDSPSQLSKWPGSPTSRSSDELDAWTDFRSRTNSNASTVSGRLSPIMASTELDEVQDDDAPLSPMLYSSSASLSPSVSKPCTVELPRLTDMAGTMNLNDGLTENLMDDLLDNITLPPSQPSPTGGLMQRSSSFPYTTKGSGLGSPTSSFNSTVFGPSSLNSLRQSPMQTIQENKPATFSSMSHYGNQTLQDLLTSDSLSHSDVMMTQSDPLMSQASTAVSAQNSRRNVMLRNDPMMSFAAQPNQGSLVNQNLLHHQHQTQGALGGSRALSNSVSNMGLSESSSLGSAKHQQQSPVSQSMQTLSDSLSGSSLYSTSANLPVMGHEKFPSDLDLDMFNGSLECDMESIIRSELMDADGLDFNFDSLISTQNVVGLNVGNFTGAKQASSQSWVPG
UniProt Q13547: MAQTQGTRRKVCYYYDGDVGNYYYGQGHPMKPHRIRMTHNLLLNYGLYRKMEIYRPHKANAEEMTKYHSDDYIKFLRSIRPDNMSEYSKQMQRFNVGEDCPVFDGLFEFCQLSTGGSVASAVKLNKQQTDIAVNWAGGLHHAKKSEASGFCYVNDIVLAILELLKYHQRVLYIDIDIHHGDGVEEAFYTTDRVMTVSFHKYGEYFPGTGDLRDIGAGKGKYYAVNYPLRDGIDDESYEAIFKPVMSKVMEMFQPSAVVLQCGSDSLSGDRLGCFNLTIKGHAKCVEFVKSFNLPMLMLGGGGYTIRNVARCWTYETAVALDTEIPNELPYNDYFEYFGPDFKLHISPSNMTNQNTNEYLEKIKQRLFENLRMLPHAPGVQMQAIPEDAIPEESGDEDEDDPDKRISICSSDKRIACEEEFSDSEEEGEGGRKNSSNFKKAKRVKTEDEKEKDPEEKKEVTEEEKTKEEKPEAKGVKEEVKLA

Target: KDM5B (human (endogenous in WM3734)) (UniProt Q9UGL1)
Test: affinity purification with mass spectrometry

Row | binding | Substance
1 | no binding | FOXO1 (from UniProt Q12778 1-655)
2 | no binding | FOXO4 (from UniProt P98177 1-505)
3 | no binding | FOXO3 (from UniProt O43524 1-673)
4 | binds | HDAC1 (from UniProt Q13547 1-482) (enzyme)
